Experimental data published in patent publication US8849577B2, “Methods of identifying biochemical pathways” (Metabolon, Inc., priority 2006, dated 2014).

Tested on: adipocyte cells
Assay: Metabolomic analysis of test compounds in adipocyte cultures
Format: cell-based, human
Description: The cell cultures used in this example were performed according to standard protocols with the cells in 10% FCS. […] The adipocytes were human and fully differentiated.
The target of the agent is not present in the cell cultures assayed, thus the changed compounds for each culture represent off-target effects, and therefore, the number of changed compounds can be used to generate a score that can be used as one criteria to rank the test compounds.

| SMILES | rank of test compounds by number of changed compounds (off-target effects) |
| --- | --- |
| COC(=O)N[C@H](C(=O)N[C@@H](Cc1ccccc1)[C@@H](O)CN(Cc1ccc(-c2ccccn2)cc1)NC(=O)[C@@H](NC(=O)OC)C(C)(C)C)C(C)(C)C [ATV] | followed by ATV and LPV |
| Cc1cccc(C)c1OCC(=O)N[C@@H](Cc1ccccc1)[C@@H](O)C[C@H](Cc1ccccc1)NC(=O)[C@H](C(C)C)N1CCCNC1=O [LPV] | followed by ATV and LPV |
